PubChem BioAssay AID1259308, NCATS | 2017

Test: 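Candidate targets for better recombinant protein yield in mammalian cells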 (primary screen)
System: human HEK293 embryonic kidney cells stably expressing firefly luciferase (HEK-CMV-Luc2-Hygro)
Knock-down reagent: single siRNA against human genes, 0.8 pmol siRNA per well
Duration: 72 h
Detection: 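Reporter luminescence and viable-cell signal on separate replicate plates, given as percent of non-targeting control and median/MAD z-scores, plus per-cell luciferase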
Direction: total luciferase, z-score and total luciferase, % of control: higher = more reporter protein produced
Rule for the call: 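Active when the median/MAD z-score for overall luciferase is greater than 3; a gene was taken forward for validation with new siRNAs if at least two of its three siRNAs passed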
Calls: active = raised luciferase; inactive = no rise
The whole screen tested about 59,000 reagents; shown is a part drawn at random. About 1,510 of all reagents (2.6%) count as active. 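Calls use total luciferase alone and ignore viability, so some active siRNAs may act by altering cell number.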 Unmarked entries are inactive. Reagents against one gene are numbered here. Not all columns of the deposit are shown.

| gene | reagent no. | total luciferase, z-score | total luciferase, % of control |
| --- | --- | --- | --- |
| MRPS5 | 1 | -0.395 | 74 |
| MRPS5 | 2 | 0.257 | 87 |
| MRPS5 | 3 | -0.13 | 79.3 |
| NFU1 | 1 | -0.954 | 62.9 |
| NFU1 | 2 | -0.332 | 75.3 |
| NFU1 | 3 | -0.472 | 72.5 |
| SH3GL1 | 1 | -0.611 | 69.7 |
| SH3GL1 | 2 | 0.283 | 87.5 |
| SH3GL1 | 3 | -0.205 | 77.8 |
| LCE3C | 1 | -0.218 | 77.5 |
| LCE3C | 2 | 1.27 | 107 |
| LCE3C | 3 | 0.0831 | 83.5 |
| COXFA4L3 | 1 | 1.13 | 104 |
| COXFA4L3 | 2 | 0.906 | 99.9 |
| COXFA4L3 | 3 | -0.401 | 73.9 |
| ZFYVE28 | 1 | 0.306 | 88 |
| ZFYVE28 | 2 | -0.0282 | 81.3 |
| ZFYVE28 | 3 | -0.278 | 76.4 |
| DUBR | 1 | -0.451 | 72.9 |
| DUBR | 2 | -1.73 | 47.5 |
| DUBR | 3 | 0.433 | 90.5 |
| SSH3 | 1 | -0.357 | 74.8 |
| SSH3 | 2 | -0.326 | 75.4 |
| SSH3 | 3 | 0.238 | 86.6 |
| RUNDC3A | 1 | 0.281 | 87.5 |
| RUNDC3A | 2 | -0.372 | 74.5 |
| RUNDC3A | 3 | -0.783 | 66.3 |
| TRIM7 | 1 | 3.6 (active) | 153 |
| TRIM7 | 2 | 2.52 | 132 |
| TRIM7 | 3 | 0.225 | 86.4 |
| SEPTIN9 | 1 | -1.37 | 54.5 |
| SEPTIN9 | 2 | -0.148 | 78.9 |
| SEPTIN9 | 3 | 1.32 | 108 |
| RAB11A | 1 | 1.03 | 102 |
| RAB11A | 2 | -0.507 | 71.8 |
| RAB11A | 3 | 1.38 | 109 |
| FBP2 | 1 | 2.33 | 128 |
| FBP2 | 2 | 0.0615 | 83.1 |
| FBP2 | 3 | 0.689 | 95.6 |
| PLS3 | 1 | -0.0772 | 80.4 |
| PLS3 | 2 | -0.716 | 67.6 |
| PLS3 | 3 | 0.212 | 86.1 |
| APOF | 1 | -1.3 | 56.1 |
| APOF | 2 | -0.248 | 77 |
| APOF | 3 | -0.0845 | 80.2 |
| ELK1P1 | 1 | -0.0486 | 80.9 |
| ELK1P1 | 2 | 1.24 | 107 |
| ELK1P1 | 3 | -0.0908 | 80.1 |
| CIDEA | 1 | 0.25 | 86.9 |
| CIDEA | 2 | 0.549 | 92.8 |
| CIDEA | 3 | 1.67 | 115 |
| PTGFR | 1 | -0.0906 | 80.1 |
| PTGFR | 2 | -2.07 | 40.7 |
| PTGFR | 3 | -1.01 | 61.9 |
| UMOD | 1 | -2.16 | 38.8 |
| UMOD | 2 | -0.0909 | 80.1 |
| UMOD | 3 | 1.6 | 114 |
| GPR22 | 1 | 0.755 | 96.9 |
| GPR22 | 2 | 0.00213 | 81.9 |
| GPR22 | 3 | -0.857 | 64.9 |
| GPR12 | 1 | -0.602 | 69.9 |
| GPR12 | 2 | -0.0983 | 79.9 |
| GPR12 | 3 | 0.292 | 87.7 |
| CDX4 | 1 | 1.15 | 105 |
| CDX4 | 2 | 0.614 | 94.1 |
| CDX4 | 3 | -0.153 | 78.8 |
| BEND5 | 1 | -0.329 | 75.3 |
| BEND5 | 2 | 0.682 | 95.5 |
| BEND5 | 3 | -1.04 | 61.2 |
| LOC646999 | 1 | -0.321 | 75.5 |
| LOC646999 | 2 | 0.373 | 89.3 |
| LOC646999 | 3 | 0.664 | 95.1 |
| CERS6 | 1 | -0.714 | 67.7 |
| CERS6 | 2 | -0.495 | 72 |
| CERS6 | 3 | 0.697 | 95.8 |

Reagents listed so far called active (1):
| gene | reagent no. | total luciferase, z-score | total luciferase, % of control |
| --- | --- | --- | --- |
| TRIM7 | 1 | 3.6 (active) | 153 |
